Experimental data taken from PMC8509297.
Results are given in words; binding and its absence hold for the method and conditions named. Binding seen in cells or lysates may run through a third protein. Some entries that bind do so weakly or less than the wild type. Tags and fused reporters may be left off the sequences shown.

The chains behind the UniProt entries cited, without tags or fusion partners.
UniProt Q9W321: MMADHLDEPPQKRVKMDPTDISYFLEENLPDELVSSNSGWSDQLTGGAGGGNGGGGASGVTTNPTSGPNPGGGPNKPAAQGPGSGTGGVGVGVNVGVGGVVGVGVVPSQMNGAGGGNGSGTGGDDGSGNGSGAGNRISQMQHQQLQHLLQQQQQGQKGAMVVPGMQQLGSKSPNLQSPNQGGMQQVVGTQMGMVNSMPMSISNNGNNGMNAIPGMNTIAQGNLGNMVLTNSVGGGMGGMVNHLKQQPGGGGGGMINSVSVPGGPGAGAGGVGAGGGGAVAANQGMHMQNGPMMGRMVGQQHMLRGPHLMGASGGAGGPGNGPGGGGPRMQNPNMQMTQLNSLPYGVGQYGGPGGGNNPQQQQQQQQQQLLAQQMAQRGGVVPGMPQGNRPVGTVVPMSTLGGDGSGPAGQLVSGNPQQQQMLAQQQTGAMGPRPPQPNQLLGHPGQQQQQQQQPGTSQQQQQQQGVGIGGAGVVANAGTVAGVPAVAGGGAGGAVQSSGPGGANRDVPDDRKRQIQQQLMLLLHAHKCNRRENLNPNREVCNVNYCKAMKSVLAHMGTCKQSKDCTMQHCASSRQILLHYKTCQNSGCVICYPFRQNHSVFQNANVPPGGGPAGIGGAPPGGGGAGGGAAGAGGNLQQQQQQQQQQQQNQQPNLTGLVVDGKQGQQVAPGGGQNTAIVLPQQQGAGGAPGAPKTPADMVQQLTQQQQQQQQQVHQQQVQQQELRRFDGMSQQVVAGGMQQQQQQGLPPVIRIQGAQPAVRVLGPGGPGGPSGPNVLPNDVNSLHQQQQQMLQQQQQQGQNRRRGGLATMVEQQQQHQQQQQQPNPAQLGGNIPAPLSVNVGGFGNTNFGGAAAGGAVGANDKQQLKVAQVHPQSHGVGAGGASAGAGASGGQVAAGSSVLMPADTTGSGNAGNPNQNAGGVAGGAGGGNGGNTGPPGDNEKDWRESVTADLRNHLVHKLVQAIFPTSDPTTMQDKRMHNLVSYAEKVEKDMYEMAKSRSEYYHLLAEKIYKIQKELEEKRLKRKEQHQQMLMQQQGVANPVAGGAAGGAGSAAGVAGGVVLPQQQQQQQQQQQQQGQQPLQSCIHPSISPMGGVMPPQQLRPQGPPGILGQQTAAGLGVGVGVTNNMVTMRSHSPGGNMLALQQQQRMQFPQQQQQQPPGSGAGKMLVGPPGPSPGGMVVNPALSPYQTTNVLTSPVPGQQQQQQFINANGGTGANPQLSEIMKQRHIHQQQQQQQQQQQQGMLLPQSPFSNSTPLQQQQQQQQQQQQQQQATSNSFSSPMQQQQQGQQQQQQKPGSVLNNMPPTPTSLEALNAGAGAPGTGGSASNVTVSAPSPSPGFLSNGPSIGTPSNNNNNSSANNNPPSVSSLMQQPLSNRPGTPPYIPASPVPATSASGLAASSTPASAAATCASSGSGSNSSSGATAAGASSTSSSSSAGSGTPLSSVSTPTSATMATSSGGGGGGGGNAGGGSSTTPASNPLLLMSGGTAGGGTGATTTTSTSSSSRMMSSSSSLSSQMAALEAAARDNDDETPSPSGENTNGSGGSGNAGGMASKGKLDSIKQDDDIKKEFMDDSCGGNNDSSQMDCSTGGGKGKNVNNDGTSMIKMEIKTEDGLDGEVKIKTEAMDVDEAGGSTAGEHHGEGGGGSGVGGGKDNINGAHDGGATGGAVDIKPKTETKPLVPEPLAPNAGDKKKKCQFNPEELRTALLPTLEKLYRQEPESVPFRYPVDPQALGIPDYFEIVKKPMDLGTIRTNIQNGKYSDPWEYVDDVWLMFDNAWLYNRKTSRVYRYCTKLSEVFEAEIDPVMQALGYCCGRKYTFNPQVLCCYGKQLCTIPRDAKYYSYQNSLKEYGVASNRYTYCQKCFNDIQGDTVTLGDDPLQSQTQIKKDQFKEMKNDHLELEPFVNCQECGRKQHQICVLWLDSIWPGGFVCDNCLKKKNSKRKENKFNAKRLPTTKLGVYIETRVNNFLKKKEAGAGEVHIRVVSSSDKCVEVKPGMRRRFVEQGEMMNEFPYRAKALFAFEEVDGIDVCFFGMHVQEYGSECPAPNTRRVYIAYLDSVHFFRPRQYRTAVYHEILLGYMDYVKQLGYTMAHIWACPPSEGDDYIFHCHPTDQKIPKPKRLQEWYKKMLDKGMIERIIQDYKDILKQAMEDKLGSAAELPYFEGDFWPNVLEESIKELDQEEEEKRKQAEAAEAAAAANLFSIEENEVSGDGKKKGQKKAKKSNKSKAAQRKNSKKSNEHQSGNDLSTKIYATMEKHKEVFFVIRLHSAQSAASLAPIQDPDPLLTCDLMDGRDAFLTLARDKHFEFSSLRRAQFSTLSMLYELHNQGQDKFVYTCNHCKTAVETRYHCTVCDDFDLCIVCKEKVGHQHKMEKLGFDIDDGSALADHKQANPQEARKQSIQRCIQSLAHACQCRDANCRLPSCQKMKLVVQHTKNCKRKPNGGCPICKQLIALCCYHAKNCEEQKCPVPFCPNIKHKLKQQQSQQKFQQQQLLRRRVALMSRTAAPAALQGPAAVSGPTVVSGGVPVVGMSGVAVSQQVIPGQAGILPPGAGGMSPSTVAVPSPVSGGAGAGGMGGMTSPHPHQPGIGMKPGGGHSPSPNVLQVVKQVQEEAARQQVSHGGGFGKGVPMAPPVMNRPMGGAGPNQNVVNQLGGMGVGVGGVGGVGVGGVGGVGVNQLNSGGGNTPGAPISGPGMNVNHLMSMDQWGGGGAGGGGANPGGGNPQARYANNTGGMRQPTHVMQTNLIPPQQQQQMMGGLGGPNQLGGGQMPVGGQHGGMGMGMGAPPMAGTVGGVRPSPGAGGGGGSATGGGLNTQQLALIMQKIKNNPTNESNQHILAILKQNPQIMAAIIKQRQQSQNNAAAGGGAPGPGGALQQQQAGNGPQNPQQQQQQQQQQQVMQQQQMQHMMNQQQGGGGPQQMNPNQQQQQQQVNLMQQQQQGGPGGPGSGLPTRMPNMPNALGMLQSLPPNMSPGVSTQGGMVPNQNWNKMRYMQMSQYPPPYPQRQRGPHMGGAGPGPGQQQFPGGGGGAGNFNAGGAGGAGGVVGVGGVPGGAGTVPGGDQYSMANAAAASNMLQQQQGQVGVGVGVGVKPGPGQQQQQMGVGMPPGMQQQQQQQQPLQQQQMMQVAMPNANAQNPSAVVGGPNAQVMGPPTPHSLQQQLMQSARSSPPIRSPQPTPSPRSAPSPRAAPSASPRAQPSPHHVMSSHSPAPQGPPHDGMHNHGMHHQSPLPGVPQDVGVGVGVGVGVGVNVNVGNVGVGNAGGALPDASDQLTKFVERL

T1: FLAG-tagged Ballchen (BALL) (Drosophila) (UniProt Q7KRY6)
T1 sequence: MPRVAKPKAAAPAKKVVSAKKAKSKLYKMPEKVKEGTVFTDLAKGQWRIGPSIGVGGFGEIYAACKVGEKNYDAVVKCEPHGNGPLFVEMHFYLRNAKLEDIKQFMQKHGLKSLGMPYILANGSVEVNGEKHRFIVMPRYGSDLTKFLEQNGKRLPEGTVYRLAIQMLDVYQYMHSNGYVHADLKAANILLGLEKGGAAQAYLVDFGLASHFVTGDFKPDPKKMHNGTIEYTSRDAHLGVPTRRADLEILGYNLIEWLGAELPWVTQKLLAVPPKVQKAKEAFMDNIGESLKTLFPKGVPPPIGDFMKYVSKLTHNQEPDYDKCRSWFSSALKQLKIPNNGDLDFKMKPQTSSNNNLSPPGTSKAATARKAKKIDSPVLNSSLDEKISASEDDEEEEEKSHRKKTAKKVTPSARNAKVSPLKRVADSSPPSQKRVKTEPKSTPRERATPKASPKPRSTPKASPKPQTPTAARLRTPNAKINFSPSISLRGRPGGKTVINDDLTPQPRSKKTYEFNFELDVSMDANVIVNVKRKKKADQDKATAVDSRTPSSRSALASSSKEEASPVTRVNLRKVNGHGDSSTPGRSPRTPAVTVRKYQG


What was measured:
[1] = biological target: T1, FLAG-tagged Ballchen (BALL) (Drosophila); assay: co-IP; lysate of S2 cells expressing BALL-FLAG on M2-FLAG agarose beads, 1 h; lysis buffer 140 mM NaCl, 20 mM Tris pH 7.4, 1 mM EDTA, 0.5% NP40, 10% glycerol; blot for endogenous CBP; empty vector cells as control
[2] = biological target: CREB binding protein (CBP) (Drosophila (endogenous in S2 cells)) (UniProt Q9W321); assay: co-IP; reciprocal: anti-CBP serum on Protein A and G Dyna beads, incubated with S2 cell lysate 1 h at 4°C; blot for BALL-FLAG; mock IP as control

Row | binding [1] | binding [2] | Molecule
1 | binds |  | CREB binding protein (CBP) (from UniProt Q9W321 1-3276) (enzyme)
2 |  | binds | FLAG-tagged Ballchen (BALL) (enzyme, UniProt Q7KRY6 1-599) MPRVAKPKAAAPAKKVVSAKKAKSKLYKMPEKVKEGTVFTDLAKGQWRIGPSIGVGGFGEIYAACKVGEKNYDAVVKCEPHGNGPLFVEMHFYLRNAKLEDIKQFMQKHGLKSLGMPYILANGSVEVNGEKHRFIVMPRYGSDLTKFLEQNGKRLPEGTVYRLAIQMLDVYQYMHSNGYVHADLKAANILLGLEKGGAAQAYLVDFGLASHFVTGDFKPDPKKMHNGTIEYTSRDAHLGVPTRRADLEILGYNLIEWLGAELPWVTQKLLAVPPKVQKAKEAFMDNIGESLKTLFPKGVPPPIGDFMKYVSKLTHNQEPDYDKCRSWFSSALKQLKIPNNGDLDFKMKPQTSSNNNLSPPGTSKAATARKAKKIDSPVLNSSLDEKISASEDDEEEEEKSHRKKTAKKVTPSARNAKVSPLKRVADSSPPSQKRVKTEPKSTPRERATPKASPKPRSTPKASPKPQTPTAARLRTPNAKINFSPSISLRGRPGGKTVINDDLTPQPRSKKTYEFNFELDVSMDANVIVNVKRKKKADQDKATAVDSRTPSSRSALASSSKEEASPVTRVNLRKVNGHGDSSTPGRSPRTPAVTVRKYQG
